Test results reported in article PMC9686995.
No constants are given. Whether binding was seen depends on the method and setting. Binding seen in cells or lysates may run through a third protein. These calls come from enrichment with a bait or labelling near it, and not all partners need be listed.

The chains behind the UniProt entries cited, without tags or fusion partners.
UniProt Q21126: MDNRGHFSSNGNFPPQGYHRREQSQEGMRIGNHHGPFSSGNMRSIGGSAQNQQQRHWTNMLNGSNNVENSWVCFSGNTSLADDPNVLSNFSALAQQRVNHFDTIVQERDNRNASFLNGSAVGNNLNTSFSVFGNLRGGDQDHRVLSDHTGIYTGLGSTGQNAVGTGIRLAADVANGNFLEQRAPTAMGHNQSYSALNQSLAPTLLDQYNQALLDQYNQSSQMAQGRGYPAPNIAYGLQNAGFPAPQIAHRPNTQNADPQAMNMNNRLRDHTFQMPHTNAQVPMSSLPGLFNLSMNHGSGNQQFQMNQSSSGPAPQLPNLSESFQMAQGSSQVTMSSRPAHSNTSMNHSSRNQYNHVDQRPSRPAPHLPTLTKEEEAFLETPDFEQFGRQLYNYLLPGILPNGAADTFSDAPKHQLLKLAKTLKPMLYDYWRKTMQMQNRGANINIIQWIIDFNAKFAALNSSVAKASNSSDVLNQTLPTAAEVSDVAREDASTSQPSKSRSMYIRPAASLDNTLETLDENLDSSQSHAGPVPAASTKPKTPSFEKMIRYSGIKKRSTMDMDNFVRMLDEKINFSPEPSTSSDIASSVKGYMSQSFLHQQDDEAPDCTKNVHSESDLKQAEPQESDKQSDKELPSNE
UniProt Q20937: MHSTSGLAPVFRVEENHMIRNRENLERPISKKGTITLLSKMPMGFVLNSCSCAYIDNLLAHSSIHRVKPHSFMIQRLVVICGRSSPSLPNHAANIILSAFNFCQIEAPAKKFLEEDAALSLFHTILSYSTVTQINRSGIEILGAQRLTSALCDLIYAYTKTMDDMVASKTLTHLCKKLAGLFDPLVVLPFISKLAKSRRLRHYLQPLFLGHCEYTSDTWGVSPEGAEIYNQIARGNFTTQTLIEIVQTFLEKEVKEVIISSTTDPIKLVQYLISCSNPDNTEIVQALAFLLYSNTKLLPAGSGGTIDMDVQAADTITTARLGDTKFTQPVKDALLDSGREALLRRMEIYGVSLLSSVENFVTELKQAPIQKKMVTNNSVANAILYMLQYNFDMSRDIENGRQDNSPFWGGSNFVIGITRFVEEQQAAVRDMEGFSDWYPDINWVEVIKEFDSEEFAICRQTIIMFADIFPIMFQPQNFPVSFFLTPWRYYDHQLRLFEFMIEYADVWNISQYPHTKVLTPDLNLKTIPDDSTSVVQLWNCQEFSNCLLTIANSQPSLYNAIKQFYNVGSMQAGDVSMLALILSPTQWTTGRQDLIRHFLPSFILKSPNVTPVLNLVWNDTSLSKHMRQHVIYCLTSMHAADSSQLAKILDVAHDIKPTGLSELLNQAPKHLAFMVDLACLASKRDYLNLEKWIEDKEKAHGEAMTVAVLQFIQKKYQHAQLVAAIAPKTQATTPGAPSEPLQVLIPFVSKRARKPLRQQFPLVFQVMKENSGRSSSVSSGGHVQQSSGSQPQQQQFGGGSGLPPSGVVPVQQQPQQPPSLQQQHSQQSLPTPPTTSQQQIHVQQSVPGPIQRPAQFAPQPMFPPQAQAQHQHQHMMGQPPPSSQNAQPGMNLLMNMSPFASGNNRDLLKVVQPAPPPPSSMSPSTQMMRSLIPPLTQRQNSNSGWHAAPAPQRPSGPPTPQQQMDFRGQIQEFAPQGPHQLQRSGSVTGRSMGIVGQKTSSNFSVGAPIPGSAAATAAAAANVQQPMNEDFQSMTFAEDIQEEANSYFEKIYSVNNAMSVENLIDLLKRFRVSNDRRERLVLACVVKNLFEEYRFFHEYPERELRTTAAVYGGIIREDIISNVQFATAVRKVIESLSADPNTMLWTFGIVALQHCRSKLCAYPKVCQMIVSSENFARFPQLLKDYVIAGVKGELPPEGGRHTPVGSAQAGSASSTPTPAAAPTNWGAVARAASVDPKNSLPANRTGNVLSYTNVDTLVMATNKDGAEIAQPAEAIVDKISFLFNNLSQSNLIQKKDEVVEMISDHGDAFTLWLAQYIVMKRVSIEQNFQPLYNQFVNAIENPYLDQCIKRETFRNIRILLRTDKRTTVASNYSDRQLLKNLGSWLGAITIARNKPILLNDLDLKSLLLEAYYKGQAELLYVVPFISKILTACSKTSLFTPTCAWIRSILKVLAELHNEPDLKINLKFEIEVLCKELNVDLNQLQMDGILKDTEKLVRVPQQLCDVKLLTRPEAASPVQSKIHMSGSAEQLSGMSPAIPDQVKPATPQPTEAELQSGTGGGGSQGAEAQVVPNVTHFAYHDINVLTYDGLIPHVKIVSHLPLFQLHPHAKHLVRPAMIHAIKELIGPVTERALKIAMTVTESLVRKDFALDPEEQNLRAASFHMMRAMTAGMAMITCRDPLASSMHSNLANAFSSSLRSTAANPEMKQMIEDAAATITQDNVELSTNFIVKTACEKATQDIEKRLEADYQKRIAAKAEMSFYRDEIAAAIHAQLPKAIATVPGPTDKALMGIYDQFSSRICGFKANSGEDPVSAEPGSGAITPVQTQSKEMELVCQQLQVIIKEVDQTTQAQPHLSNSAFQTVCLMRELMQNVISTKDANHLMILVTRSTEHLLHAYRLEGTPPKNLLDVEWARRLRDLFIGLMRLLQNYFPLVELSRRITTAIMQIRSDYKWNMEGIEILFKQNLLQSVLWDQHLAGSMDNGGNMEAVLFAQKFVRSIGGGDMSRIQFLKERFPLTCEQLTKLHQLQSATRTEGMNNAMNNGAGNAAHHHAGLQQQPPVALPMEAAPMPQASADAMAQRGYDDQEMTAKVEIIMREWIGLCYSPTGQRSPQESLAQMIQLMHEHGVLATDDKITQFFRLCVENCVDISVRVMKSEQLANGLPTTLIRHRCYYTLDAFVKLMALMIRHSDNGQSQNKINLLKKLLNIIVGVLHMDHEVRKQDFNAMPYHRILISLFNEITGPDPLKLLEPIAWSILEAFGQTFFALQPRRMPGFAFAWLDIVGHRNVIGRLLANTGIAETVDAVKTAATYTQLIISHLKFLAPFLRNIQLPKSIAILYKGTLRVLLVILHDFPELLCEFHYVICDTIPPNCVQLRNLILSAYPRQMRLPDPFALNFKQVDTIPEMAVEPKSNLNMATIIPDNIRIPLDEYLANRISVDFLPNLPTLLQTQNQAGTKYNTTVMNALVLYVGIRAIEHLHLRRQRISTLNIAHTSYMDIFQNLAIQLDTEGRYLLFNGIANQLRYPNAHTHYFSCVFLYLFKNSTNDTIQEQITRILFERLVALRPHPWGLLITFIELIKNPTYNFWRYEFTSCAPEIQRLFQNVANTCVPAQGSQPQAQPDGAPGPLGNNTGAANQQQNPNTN

Biological target: MEG-1::GFP (C. elegans) (UniProt Q21126)
Assay: affinity purification with mass spectrometry; MEG-1::GFP immunoprecipitated from early embryo lysates with anti-GFP nanobody magnetic beads (4°C, 90 min; IP buffer 300 mM KCl, 50 mM HEPES pH 7.4, 1 mM EGTA, 1 mM MgCl2, 1% glycerol, 0.1% NP-40); LC-MS-MS; control: wild-type lysates with untagged MEG-1; two biological replicates

| Molecule | binding |
| --- | --- |
| NTL-1 (from UniProt Q20937 1-2641) | binds |
| DCAP-2 (protein, UniProt O62255 1-786) MEISTENWCKKPKNRSIFSKNISFQKQNKSTEEPPSSVQKLLASLQQAQNKSDLSEQPSTSKPKKNEKRKKAVAQAPASAPAPGPEEKKKQPKRASVGARMQQQAENARISQTKRPRQVSTSKGSSRNTTAPEQQNYQQQQQQYKGPRIPTDILDELEFRFISNMVECEINDNIRVCFHLELAHWYYIDHMVEDDKISGCPNVGSRDFNFQMCQHCRVLRKYAHRADEVLAKFREYKSTVPTYGAILVDPEMDHVVLVQSYFAKGKNWGFPKGKINQAEPPRDAAIRETFEETGFDFGIYSEKEKKFQRFINDGMVRLYLVKNVPKDFNFQPQTRKEIRKIEWFKIDDLPTDKTDELPAYLQGNKFYMVMPFVKDIQIYVQKEKEKLRRRKAEAVQSTPSSSIFSQLFPAQPPPPVPEDATPTRPMYKRLTSEELFSAFKNPPAGEVARPTLPDMSPAVNGLDTLAVLGICTPLKPGASLNEFSGAPQNCPMISEEAGSPADPSAEIGFAMPMDLKQPVVTSDHPWQHHKISDSSAPPQTLESHQGWLDTQLVNTIMHSPNHPLPPTSNSPATPTAVLGHLIGKPIQPQAILPQAATPTALGSAEKPKSSRISLSDNSAFKAISSTQKQSIPKATAAPPSTEKTRSASLSGSSQVVGKPARNLFNSVVSPVSSGIQSIQGDGGAWEDVWFREQLAATTTAGTSISSLAASNQELAMINREETPIEDPYFKQQAYQKAQKAQSLIPACSQWTNSIKLDIDYVVGPLSFWMQQFSTKSPVSGTGPQLP | binds |
| OMA-1 (protein, UniProt G5EC86 1-407) MNVNGENNEKIDEHHLESSLAGVPTLPVSPLDHAKDLSQTNPNAQIGDLVTQTANLIAIKKQLLEDIAFNQHIQSMQVRAIQSFPQNNQVAPPFQQFDPRRRGLARMQKPESYKTVICQAWLESKTCSFADNCRFAHGEEELRPTFVEPLQNNKYKTKLCDKYTTTGLCPYGKRCLFIHPDHGPNAYIRADKLLEVSQRHALADIRDQMEQHIMTNGRIAAPPLSAIQHPLEMFARPSTPDEPAAKLPLGPTPVSTRGPRYELPTKELHDAEGAMTYPPSRWPLDPSMFALDAWNMAHRPASPLDSMVLGSAPNAGSFGMLGKQNTPGGVSGYSSAGSTPSQDLSSSSLNAASAAAAAAYFANSAVAQSLLMKSVATDPMMSCNGPFSPMPGFDQLAENMTKHLNLW | binds |
| MEG-2 (protein, UniProt Q21127 1-819) MENCDDLSSDENLPPPGDHRREQSQERARVGNRDESVSSTNMRSIGGAVHNQQQLYWTDMYNGSNNLENFWLCFSGNTSLADDPTVQSDSSASTQSRTNQSGTIAQETDNRNASNFPPRSTTRRGQTYESRDESQGGQAPSHQNQVPGVDRDEYAGDRSNVSINLPSVDQWREYSFSDNSFQGESRTVQRRSSRATHRVKNQFGSIGDGRTSNNTSLQEPVIQDTRNRNRSESSSTMSSQSRTEHAPIFRLQYNYQREADNRSSRLVQIQGHSAPNNANGLQNTGGQAPDIGPEVNGQSSDTRAMNMGNQMAQGDSHVPMNFVPRPLSNGVPRLHGVPRLVDMYDYELAQRAHARRYPTSNMPYGFPNAGFQAPPHMGLWPNNQNADTRAMNMDNRSRDRTFQMPPANAQVPTSSLSGLFNSSINHGSGNQQFQMGQSSSGSAPQLPALPENFLMAHANSQIPTSSLSGLFNAMNHGSGNRMNHSSSGPAPQLPNLPESFLMAHGIGQVETRSPAGPSNSSINHGSGNQQFPVQQSSSRPAPQLPNLPESFLMAHGLSQIQTSSTAGPSNSSMNHGSGNQQFRMGQSSSRPAPQLPSLQESFLMAHGIAQVETSSTAGPSNSSMNHGSGNQQFPVQQSSSRPAPHLPDLIRQEEEFLNTLEFEQFARRLYNDLLPGVDPNYDSGTSTSETPVLKFSITLKAMLYDYWRTMVQMQYRGANINFLQSIINLNARSAALNSSNARASGSADVQNQTVSATVEGADDASANVNALSDLLAQSFPRQAEGEASRRNDIDHPEDDLNQADSPKSDNQSDKDPPSN | binds |
